From PubChem BioAssay AID2762 (National Center for Advancing Translational Sciences (NCATS), 2010)
The shares of active, inactive and inconclusive entries below differ from those in the screen. Potencies beside an inconclusive call are fits to weak or partial responses and may not hold up. Calls of active or inactive are those of the source. The call rests on the fitted dose curve; in most records, active means well fitted inhibition curve with a large enough effect; inconclusive means small, poorly fitted or top-dose-only effect, or effect the other way; inactive means no such curve, though single readings can be large or run the other way.

Sequences of proteins named here, by UniProt entry; tags and fusion partners are left off. A change or cut given only in a name is not applied to a line headed by its entry.
UniProt P51450: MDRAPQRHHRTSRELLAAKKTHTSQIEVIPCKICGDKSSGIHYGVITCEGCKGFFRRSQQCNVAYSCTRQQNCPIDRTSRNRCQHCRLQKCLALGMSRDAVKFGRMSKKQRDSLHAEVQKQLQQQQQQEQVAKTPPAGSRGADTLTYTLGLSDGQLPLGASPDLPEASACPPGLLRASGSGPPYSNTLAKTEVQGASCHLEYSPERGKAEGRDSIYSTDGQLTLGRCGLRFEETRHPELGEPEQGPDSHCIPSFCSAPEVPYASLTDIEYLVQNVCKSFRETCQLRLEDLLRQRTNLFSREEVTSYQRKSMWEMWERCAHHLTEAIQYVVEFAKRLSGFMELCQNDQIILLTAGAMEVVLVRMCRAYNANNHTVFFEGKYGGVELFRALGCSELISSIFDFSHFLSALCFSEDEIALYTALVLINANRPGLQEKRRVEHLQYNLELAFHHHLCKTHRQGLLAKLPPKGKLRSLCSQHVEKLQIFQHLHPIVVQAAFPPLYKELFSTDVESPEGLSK

Each compound was assayed against Nuclear receptor ROR-gamma (Mus musculus) (UniProt P51450) (assay: Concentration response confirmation assay for inhibitors of ROR gamma transcriptional activity). Details: Drosophila S2 Gal4-RORgamma UAS-luciferase, 20 h; series mostly up to 46.1 µM.
Summary of the method: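 ROR gamma transcriptional activity was tracked as Gal4-UAS luciferase output in stably transfected Drosophila Schneider cells, with compound added 1 hr before 700 uM copper sulfate induction and a 20 hr ambient-temperature incubation.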

Potency, active:
COc1ccc(-n2ncc(Cl)c(Cl)c2=O)cc1 8.88 µM
NC(=O)/C=C/C(=O)Nc1ccc(Cl)cc1 8.88 µM
O=C(CCN1C(=O)/C(=C/c2ccccc2Cl)SC1=S)N1CCCC1 11.2 µM
Fc1cccc2sc(Nc3nnc(-c4ccco4)o3)nc12 1.99 µM
Cc1cc(C)c2[nH]c(C(=O)Nc3ccc4c(c3)OCO4)cc2c1 0.125 µM
CCOC(=O)c1sc(NC(=O)c2ccc(S(=O)(=O)N(C)C)cc2)nc1C 0.0791 µM

3 compounds from above, sorted by length of the SMILES, rising:
Potency, active:
COc1ccc(-n2ncc(Cl)c(Cl)c2=O)cc1 8.88 µM
O=C(CCN1C(=O)/C(=C/c2ccccc2Cl)SC1=S)N1CCCC1 11.2 µM
CCOC(=O)c1sc(NC(=O)c2ccc(S(=O)(=O)N(C)C)cc2)nc1C 0.0791 µM

Next part.

Potency, inconclusive:
COc1ccc(C(CNC(=S)NCc2ccccc2)N2CCCC2)cc1 (centres undefined) 0.281 µM [activator, full curve, poor fit]
CC(C)(C)NC(=O)CSc1nc2ccc(NC(=O)CSc3nnnn3Cc3ccccc3)cc2s1 2.23 µM [activator, full curve]
COc1ccc(-c2cc(-c3ccccc3)n[nH]2)c(O)c1 19.9 µM [inhibitor, partial curve, poor fit]
COc1ccc(C(=O)Nc2scc(-c3ccc(Cl)cc3Cl)c2C(N)=O)cc1 11.2 µM [activator, partial curve, poor fit]
Cc1ccccc1C(=O)OC1OC(=O)C(Cl)=C1Nc1ccccc1 (centres undefined) 28.1 µM [activator, partial curve]
S=c1[nH]nc(-c2ccc(Cl)cc2Cl)n1-c1ccc2c(c1)OCCO2 15.8 µM [inhibitor, partial curve, poor fit]
CCOc1cc(C)c(S(=O)(=O)NC2CCCCC2)cc1C 25 µM [activator, partial curve]
Cc1ccc(-c2cc(C(=O)N3CCc4ccccc4C3)[nH]n2)cc1C 0.0315 µM [inhibitor, single point]
Cc1ccc(-c2noc(CCC(=O)N(C)c3ccccc3C)n2)cc1 25 µM [activator, partial curve]
COc1ccc(C(=O)Nc2cc(-c3ccc(C)cc3)no2)cc1 3.97 µM [inhibitor, partial curve]
CCOc1cccc(-c2cc(-c3n[nH]c(=S)n3CC)c3ccccc3n2)c1 2.81 µM [inhibitor, full curve, poor fit]
CN(C)S(=O)(=O)Oc1ccsc1C(=O)Nc1ccc(Cl)cc1 31.5 µM [activator, partial curve]
Cn1nccc1C(=O)NC1CCCc2c1cnn2-c1ccc(F)cc1F (centres undefined) 3.97 µM [inhibitor, full curve, poor fit]
CCOC(=O)C(C)Sc1nc(-c2ccco2)cc(C(F)(F)F)c1C#N (centres undefined) 25 µM [activator, partial curve]
O=C(CSc1ccccc1C(=O)N1CCCCC1)NCC1CCCCC1 7.05 µM [activator, partial curve, poor fit]
CCNC(=O)CCc1nc(-c2ccc(C(C)(C)C)cc2)no1 0.158 µM [inhibitor, full curve, poor fit]
O=C(CSc1nc2ccc(NC(=O)CSc3nnnn3Cc3ccccc3)cc2s1)Nc1ccccc1 17.7 µM [activator, partial curve, poor fit]
O=C(CSc1n[nH]c(=O)n1-c1ccc2c(c1)OCCO2)Nc1ccccc1 1.77 µM [activator, partial curve, poor fit]
c1ccc(-c2ncc3c(ccc4ccccc43)n2)cc1 3.97 µM [inhibitor, full curve, poor fit]
CCN1CCN(CCC(=O)Nc2ccccc2)CC1 0.0079 µM [activator, full curve, poor fit]
COc1ccc(-c2nnc(-c3ccc(N(C)C)cc3)o2)cc1 0.25 µM [inhibitor, full curve, poor fit]
Cc1ccc(NC(=O)CCN2CCN(C)CC2)cc1 0.0031 µM [activator, full curve, poor fit]

Potency, inactive:
Cc1sc2ncnc(Sc3nnc4sc5ccccc5n34)c2c1C
COc1cccc(-c2cc(C(=O)N3CCc4ccccc4C3)[nH]n2)c1
O=C(O)c1ccc(/C=N/n2cc(-c3ccccc3)[nH]c2=S)cc1
Cc1ccccc1NC(=O)CCN1CCN(C)CC1
CCOC(=O)Cc1ccc(NC(=O)c2ccc(C(C)(C)C)cc2)cc1
O=C(COc1ccccc1Cl)NCCCN1CCOCC1
